Results are given in words; binding and its absence hold for the method and conditions named. In cells and extracts the contact can be indirect.
Molecular target: T1, Z-DNA/RNA binding protein 1 (rat (endogenous in Sprague Dawley hippocampal neurons)) (UniProt Q8VDA5)
T1 sequence: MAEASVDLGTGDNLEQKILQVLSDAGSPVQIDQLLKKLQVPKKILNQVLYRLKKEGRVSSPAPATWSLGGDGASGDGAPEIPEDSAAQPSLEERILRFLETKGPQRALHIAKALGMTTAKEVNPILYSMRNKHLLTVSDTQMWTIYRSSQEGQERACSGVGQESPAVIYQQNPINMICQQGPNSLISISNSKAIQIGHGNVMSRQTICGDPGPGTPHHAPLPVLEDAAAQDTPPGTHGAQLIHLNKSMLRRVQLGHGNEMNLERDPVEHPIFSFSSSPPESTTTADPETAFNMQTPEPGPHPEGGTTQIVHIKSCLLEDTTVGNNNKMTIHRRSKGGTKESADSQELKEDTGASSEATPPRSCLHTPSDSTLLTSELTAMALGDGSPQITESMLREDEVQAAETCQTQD
Assay: co-IP; lysate of rat hippocampal neurons primed with sevoflurane (3%, 6 h); precipitated with 1 ug anti-ZBP1 antibody and protein A/G PLUS-Agarose overnight at 4 C, washed five times with M2 buffer; immunoblot for ADAR1-P150, ADAR1-P110, ADAR2, ADAR3

binding: no binding
Substance: Adenosine deaminase acting on RNA-1, P110 isoform

From publication PMC11281990
